Test results from patent US9056888B2 (priority 2011, dated 2015).
At least one structure is not confirmed: it was looked up by name or label, or the drawing left a doubt.

Legend:
CA-SP1 cleavage = experiment: HIV-1 maturation inhibition assay, p25 (CA-SP1) to p24 (CA) processing in virion lysate; type: cell-based; conditions: Western blot (FIG. 2)
Experimental: Two days after transfection, virus-containing supernatants were concentrated by ultracentrifugation through a layer of 20% sucrose at 25 000 rpm for 2 h30. Viral pellets were then resuspended in RIPA lysis buffer [10 mM Tris-HCl (pH 7.4), 1 mM EDTA, 100 mM NaCl, 1% Triton X-100, 0.1% SDS, 0.25% sodium deoxycholate, 0.2% phenylmethylsulfonyl fluoride (PMSF)]. Viral proteins were loaded on a 12.5% SDS-PAGE gel.
To further elucidate the mechanism of action, viral samples used for infection assays were subjected to biochemical characterization (FIG. 2).

HIV-1 virion morphology = experiment: Thin-section electron microscopy of virions from pNL4-3 transfected 293T cells; type: cell-based; conditions: pNL4-3, 5 μg/ml (FIG. 3)
Experimental: Two days after transfection, 293T cells were processed for thin-layer electron microscopy as follows: cells were fixed in situ with 2.5% glutaraldehyde in cacodylate buffer (pH 7.4) for 60 min at 4° C. Cells were then post-fixed with 2% osmium tetroxide, washed in cacodylate buffer containing 0.5% tanic acid, and embedded in epon (Embed-812, Electron Microscopy Sciences Inc.). Sections were counterstained with uranyl acetate and lead citrate and examined with an Hitachi H7100 transmission electron microscope.
In the absence of compounds, cells transfected with pNL4-3 produced virus particles with the classical mature morphology characterized by the presence of condensed, conical cores (FIG. 3A).

SMILES: C=C(C)[C@@H]1CC[C@]2(C(=O)O)CC[C@]3(C)[C@H](CC[C@@H]4[C@@]5(C)CC[C@H](O)C(C)(C)[C@@H]5CC[C@]43C)[C@@H]12 [BA, betulinic acid, reference compound]
- inhibition of conversion of uncleaved p25 (CA-SP1) to mature p24 (CA) (CA-SP1 cleavage): accumulation of p25 is observed
- virus morphology / virion maturation by EM (HIV-1 virion morphology): moderate effect on virus maturation inhibition
